PubChem BioAssay AID1259254 – NCATS | 2017

Aim: 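Gene knock-downs that lead to re-replication, shown by excess G2 DNA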 (primary screen)
System: human HCT116 colorectal cancer cells
Reagent: single siRNA against human genes
Duration: 3 days
Read-out: 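Nuclei stained with Hoechst and imaged; cell-cycle phase assigned by DNA content; G2 share scaled per plate, non-targeting siRNA 0%, GMNN siRNA 100%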
Reading the numbers: G2 robust z-score and G2 cells, % of GMNN control: higher = more G2 cells, more excess DNA replication; raw share of cells in G2: higher = larger share of cells with G2 DNA content
Active means: 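An siRNA counts as active if its G2 robust z-score lies at least 5 MADs above the screen median; here such calls match roughly 38% of GMNN control or more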
Shown is a random part of about 59,000 reagents tested. About 1,550 of all reagents (2.6%) were called active. 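G2 share is only a proxy for re-replication; each gene was hit by three separate siRNAs, and active genes were retested.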 Raw values vary from plate to plate and are shown uncorrected. Entries without a mark were called inactive. The numbers tell different reagents against one gene apart. No sequences are given here. Not given: the amount of reagent.

gene symbol	reagent no.	G2 robust z-score	G2 cells, % of GMNN control	raw share of cells in G2 (%)
ARVCF	1	-0.203	1.54	4.56
ARVCF	2	0.378	5.63	6.63
ARVCF	3	-1.43	-7.12	2.54
RFTN1	1	2.53	20.7	13.1
RFTN1	2	-0.552	-0.914	3.76
RFTN1	3	-1.25	-5.81	1
H4C4	1	-0.134	2.03	6.03
H4C4	2	0.352	5.44	6.05
H4C4	3	0.407	5.83	5.41
SPOCD1	1	0.51	6.56	6.87
SPOCD1	2	-0.828	-2.86	2.1
SPOCD1	3	1.17	11.2	6.48

Part of the list above in another layout.
gene symbol | reagent no. | G2 robust z-score | G2 cells, % of GMNN control | raw share of cells in G2 (%)
ARVCF | 2 | 0.378 | 5.63 | 6.63
ARVCF | 3 | -1.43 | -7.12 | 2.54

The results go on.
gene symbol	reagent no.	G2 robust z-score	G2 cells, % of GMNN control	raw share of cells in G2 (%)
GOLGA6B	1	0.333	5.31	6.44
GOLGA6B	2	-1.46	-7.31	0.969
GOLGA6B	3	-0.627	-1.44	2.57
BTG2	1	-0.0331	2.73	6.34
BTG2	2	-0.564	-1	3.5
BTG2	3	0.118	3.8	4.69
IL6ST	1	0.992	9.94	8.66
IL6ST	2	-1.57	-8.09	2.61
IL6ST	3	-1.1	-4.76	2.46
CD4	1	0.131	3.89	6.41
CD4	2	-0.459	-0.26	4.01
CD4	3	2.19	18.4	11.5
STRN	1	-0.867	-3.13	3.74
STRN	2	4.86	37.2	18.6
STRN	3	-0.3	0.857	3.65
ZNF708	1	-1.13	-4.97	1.87
ZNF708	2	-0.192	1.62	6.71
ZNF708	3	-0.227	1.37	3.91
